Measured values: paper PMC11611742
Results are given in words; binding and its absence hold for the method and conditions named. Some binding calls cover weakened binding; strength is not graded here.

The chains behind the UniProt entries cited, without tags or fusion partners.
UniProt P35222: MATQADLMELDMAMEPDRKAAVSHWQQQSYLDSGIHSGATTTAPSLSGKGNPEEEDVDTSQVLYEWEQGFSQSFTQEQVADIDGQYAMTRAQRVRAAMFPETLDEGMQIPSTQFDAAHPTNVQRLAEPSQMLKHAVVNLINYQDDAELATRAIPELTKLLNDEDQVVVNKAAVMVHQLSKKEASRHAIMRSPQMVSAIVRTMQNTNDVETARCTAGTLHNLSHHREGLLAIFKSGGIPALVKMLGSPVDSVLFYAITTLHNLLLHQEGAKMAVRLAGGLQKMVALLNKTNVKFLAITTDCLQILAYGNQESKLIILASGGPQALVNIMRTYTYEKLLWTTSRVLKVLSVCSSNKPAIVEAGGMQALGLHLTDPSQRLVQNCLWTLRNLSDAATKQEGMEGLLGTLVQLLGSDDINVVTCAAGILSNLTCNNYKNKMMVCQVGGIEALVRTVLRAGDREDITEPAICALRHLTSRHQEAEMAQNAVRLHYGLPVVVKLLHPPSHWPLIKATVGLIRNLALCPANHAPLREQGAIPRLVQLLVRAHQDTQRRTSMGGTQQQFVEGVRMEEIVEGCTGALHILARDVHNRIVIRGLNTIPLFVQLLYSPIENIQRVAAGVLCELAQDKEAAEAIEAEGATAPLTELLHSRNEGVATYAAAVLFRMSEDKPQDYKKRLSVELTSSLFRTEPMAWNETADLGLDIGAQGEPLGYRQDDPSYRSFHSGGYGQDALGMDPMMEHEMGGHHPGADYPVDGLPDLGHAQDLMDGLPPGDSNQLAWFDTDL

Target: T1, USP10 peptide, residues 7-21
T1 sequence (peptide): QYIFGDFSPDEFNQF
Assay: peptide or protein array; µSPOT: 15-mer peptides (overlapping 12 or 11 amino acids) of disordered regions on slides, incubated with recombinant purified β-Catenin; immunostaining with chemiluminescent readout; both purified

binding: binds
Substance: recombinant β-Catenin (from UniProt P35222 1-781)
